# Laboratory results taken from paper PMC12040169 (PLOS Biology, 2025).
# The other results are listed elsewhere or left out.
# Tested on: T1, CTL2-GFP (C. trachomatis L2/434/Bu, GFP-expressing)
# T1 construct: L2/434/Bu, GFP-expressing
# Set-up: species or system HeLa; Intracellular C. trachomatis growth in HeLa cells, bulk GFP fluorescence relative to DMSO
# Details: bulk GFP, single well; 28.5 h, 10 µM; inhibitor
row,Structure (SMILES),% of control remaining [%]
1,Cc1c(C(=O)C2=C(O)C(=O)N(CCCN(C)C)C2c2cccnc2)cnn1-c1ccccc1 (stereo not shown) [CBK269312],99.4615
2,CCOC(=O)c1c(N)sc2c1CC(c1ccccc1)SC2c1ccccc1 (stereo not shown) [CBK293955],155.389
3,OC1(c2cccnc2)CCCC2CN(Cc3ccc(F)c(F)c3)CC21 (stereo not shown) [CBK284511],77.8619
4,CN1CCN(C(=O)c2ccc(-c3cnc(N)c(-c4ccc(O)cc4)n3)cc2F)CC1 [CBK200421],110.101
5,Cn1c(CN2CCCCC2)nc2cc(NS(=O)(=O)c3ccc(Cl)cc3)ccc21 [CBK268404],135.674
6,Cc1nn(C)c(N2CCNCC2)c1NC(=O)c1cccn1C [CBK050309T],118.346
7,CCCCCNC(=N)NC1Cc2ccccc2C1 [CBK036321T],142.403
8,O=c1[nH]nc2c3c(nc(-c4ccncc4)n12)CCCC3 [CBK288029],101.187
9,CCc1c(C)c2cc(Cl)c(O)c(CN3CCCC3)c2oc1=O [CBK267099],185.628
10,C=CCn1c(SCC(=O)Nc2ccc(OC)cc2)nnc1-c1ccncc1 [CBK126824],120.612
11,O=S(=O)(Nc1nnc(C(F)(F)F)s1)c1ccc(Br)cc1C(F)(F)F [CBK062013],117.902
12,Cc1cc(C(=O)Nc2ccc(S(=O)(=O)N3CC(C)OC(C)C3)cc2)c2ccccc2n1 (stereo not shown) [CBK295170],164.836
13,CC(NC(=S)Nc1ccc(S(N)(=O)=O)cc1)c1ccncc1 (stereo not shown) [CBK267073],91.006
14,COc1ccc(Br)cc1CN1CCC(N2CCN(c3ccccc3OC)CC2)CC1 [CBK264681G],100
15,COc1cccc(S(=O)(=O)Nc2nn(Cc3ccc(C)cc3)c3ccccc23)c1 [CBK048043],88.5853
16,CN1C(=O)COc2ccccc2CCCC[C@@H]2[C@H]1CCCN2C(=O)Cn1ccnc1 [CBK292152],125.457
17,C[C@H]1CN2C[C@H](O)CC2CN1Cc1cn(C)c2ccc(F)cc12 (stereo partly shown) [CBK285428],106.366
18,CC(C)(C)OC(=O)N1CCN(c2ncc([N+](=O)[O-])s2)CC1 [CBK000135],106.556
19,COc1ccc(CCOC(=O)Nc2cn(C)nc2C(F)(F)F)cc1OC [CBK021070],106.601
20,COc1ccc2cc(CNC(Cc3ccccc3)c3ccccc3)c(Cl)nc2c1 (stereo not shown) [CBK295357],173.591
21,NC(=O)C1CCN(C(=O)CN2CCN(Cc3ccccc3)CC2)CC1 [CBK265971C],132.766
22,Cn1cc([C@@H]2O[C@H](CO)[C@H](O)C2O)c(=O)n(C)c1=O (stereo partly shown) [CBK201191],152.616
23,O=S(=O)(Nc1nc(-c2sccc2Cl)cs1)c1cc(Cl)ccc1Cl [CBK014147],116.117
24,CC(=O)O[B-]1(OC(C)=O)N(c2ccc(S(N)(=O)=O)cc2)N=C(c2ccccc2)N=[N+]1c1ccccc1 [CBK260879],100
25,CC(C)c1ccc(C(C)NC(=O)Cn2cccc(C(=O)Nc3ccc(F)cc3)c2=O)cc1 (stereo not shown) [CBK286043],131.112
26,CN1CCN(CC(=O)C(C#N)c2ccccc2)CC1 (stereo not shown) [CBK269270],156.741
27,COc1ccc(C)cc1C1(CNC(=O)C2CCCC2N)CCOCC1 (stereo not shown) [CBK304308C],110.119

row,Structure (SMILES),% of control remaining [%]
1,COC(=O)c1cc(S(=O)(=O)NC2CCCc3ccccc32)cn1C (stereo not shown) [CBK304616],74.0558
2,CC(C)(C)OC(=O)n1cccc1-c1cncc(-c2ccc(C(=O)N3CCOCC3)cc2)n1 [CBK138520],107.361
3,Cc1ccccc1CSCC(=O)N1CCN(c2ccccc2)CC1 [CBK058577],131.393
4,O=C(O)c1nccnc1-c1ccc(COc2ccccc2)cc1 [CBK050806],124.187
5,Brc1cn2ccnc2c(NCC2CC2)n1 [CBK037432],174.423
6,CC#Cc1cn([C@H]2C[C@@H](O)[C@@H](CO)O2)c(=O)nc1N [CBK201257],129.57
7,CC(C)[C@@H](CO)NC(=O)c1cnc(-c2cccc(C(F)(F)F)c2)c(-c2cccnc2)c1 [CBK037520],120.473
8,NCCCOc1nc2ccccc2nc1N1CCCC1 [CBK115287],100
9,CC(C)C(NC(=O)c1cc2c([nH]c1=O)CCC2)c1ccc(F)cc1 (stereo not shown) [CBK281662],111.122
10,OCC1CCCN1c1cncc(-c2ccc3c(c2)OCO3)n1 (stereo not shown) [CBK065908],107.896
11,CC(=O)Nc1ccc(S(=O)(=O)N2CCN(c3ccc([N+](=O)[O-])c(NC4CC4)c3)CC2)cc1 [CBK264439],128.176
12,N=C(N)CCCOc1ccccc1-c1ccccc1 [CBK058057],93.1206
13,O=C(Nc1ccc2cc(Br)cnc2n1)C(F)(F)F [CBK063313],115.483
14,COC(=O)[C@H]1CN(C(=O)c2cnn(C)c2C)C[C@@H]1c1ccc(F)cc1 [CBK283721],137.249
15,Clc1cc(Nc2cccc(OCc3ccccc3)c2)n2nccc2n1 [CBK037109],129.452
16,COc1ccc(C=CC(=O)Nc2sc3c(c2C(=O)O)CCCC3)cc1OC [CBK296103],5.887
17,Cc1cc(C)cc(C(=O)N2CCC(NC(=O)c3cnn(C)c3)CC2)c1 [CBK305723],104.521
18,COc1ccc(Nc2cccc(-c3ccc(CCC(=O)O)cc3)n2)cc1 [CBK036943],160.921
19,Cc1onc(-c2ccc(Cl)cc2)c1C(=O)N1CCN(C2CCN(C)CC2)CC1 [CBK149087],78.2025
20,CCCc1ccc(S(=O)(=O)N2CCN(CC(=O)Nc3cc(C(C)C)no3)CC2)cc1 [CBK295629],122.378
21,Cc1ccc2c(c1)cc(C)c1nn(CC(=O)N3CCCC3)c(=O)n12 [CBK283872],114.955
22,OC12CCCON1OC(c1ccccc1)C2 (stereo not shown) [CBK006752],125.714
23,O=C(O)c1cccc(CSc2nnc(-c3ccncc3)o2)c1 [CBK266310],154.118
24,Cc1ccc(S(=O)(=O)NC(C)(C)CN2CCN(C(c3ccccc3)c3ccccc3)CC2)cc1 [CBK262799],132.306
25,Cc1cccc(-n2ncc3c(=O)n(CC(=O)NC4CCCCC4)cnc32)c1C [CBK287694],142.527
26,Cc1ccc2ncnc(NC(CC(C)C)C(=O)O)c2c1 (stereo not shown) [CBK275388],127.659
27,C[C@H](Nc1cncc(-c2cccnc2)n1)c1ccccc1 [CBK065807],166.147

row,Structure (SMILES),% of control remaining [%]
1,COc1cccc(C2=NO[C@@](CC(=O)O)(C(=O)NCc3ccccc3)C2)c1OC [CBK286641],118.113
2,O=C(N/N=C/c1ccc(OC(=O)c2cccs2)cc1)c1ccccn1 [CBK262178],87.3931
3,O=C(CSCc1ccccc1)Nc1ccc2c3c(cccc13)CC2 [CBK264916],117.332
4,CC(=O)NC1(c2ccccc2)CCN(C(=O)Nc2ccccc2-c2ccccc2)CC1 [CBK286288],114.928
5,Cc1cc(NC(=O)CN(C)CCNC(=O)C2CCCC2)no1 [CBK305237],89.8564
6,Oc1ccc(NCc2ccc(OCc3cccs3)cc2)cc1 [CBK266586],156.974
7,CC(C)NC(=O)c1sc2ccccc2c1C1CCN(C(=O)CCc2ccccc2)C1 (stereo not shown) [CBK285874],118.959
8,Cc1ccc(S(N)(=O)=O)cc1N [CBK024851],121.451
9,O=C(NC1Cc2ccccc2C1)c1ccno1 [CBK200358],117.912
10,O=C(CCNS(=O)(=O)c1ccccc1Cl)N1CCN(C(=O)C2CC2)CC1 [CBK306025],126.004
11,CCC(O)CN1CCCC(c2nc3cc(C)ccc3[nH]2)C1 (stereo not shown) [CBK304854],74.7796
12,CS(=O)(=O)N(CC(=O)NCc1ccccn1)c1ccc2c(c1)OCO2 [CBK269385],122.847
13,CC(C)(C)c1nsc(NC2CCCCCC2)n1 [CBK075061],96.1166
14,O=C(Nc1cccc(CCc2ccccn2)c1)c1ccc([N+](=O)[O-])cc1 [CBK269653],96.2359
15,c1csc(COc2nccnc2-c2ccsc2)c1 [CBK106770],93.3705
16,C#CCOC(=O)NC(=O)c1csnn1 [CBK006685],115.447
17,COc1ccc([C@@]23CC[C@@H](NC(=O)Nc4ccc(C)c(F)c4F)C[C@@H]2N(C)CC3)cc1OC [CBK073686T],115.777
18,COc1cccc2cc(-c3cncn3CCCC(C)(C)CO)oc12 [CBK281817],86.0192
19,Cc1csc2c(C3CCN(C(=O)c4ccnn4C)CC3)nc(C)n12 [CBK285249],125.956
20,COc1cc(/C=N/NC(=O)c2ccncc2)ccc1OCc1ccc(Cl)cc1 [CBK262454],90.2254
21,COc1ccc(OCCNC(=O)c2cc(Br)cnc2N2CCOCC2)cc1 [CBK076214],162.158
22,O=C(C1=C(O)C(=O)N(Cc2cccnc2)C1c1cccnc1)c1cccs1 (stereo not shown) [CBK264547],117.596
23,O=S(=O)(NCC(c1ccccc1)n1cc(-c2ccccc2)nn1)c1ccccc1 (stereo not shown) [CBK268244],153.777
24,FC(F)(F)c1cccc(CC2CSC(=S)N2)c1 (stereo not shown) [CBK022895],76.4094
25,Cc1cc(C)n(-c2cccc(C(=O)NCCn3ccnc3)c2)n1 [CBK281585],100.617

# Looked up one by one from the list above:
row,Structure (SMILES),% of control remaining [%]
19,COc1ccc(CCOC(=O)Nc2cn(C)nc2C(F)(F)F)cc1OC [CBK021070],106.601
9,CC(C)C(NC(=O)c1cc2c([nH]c1=O)CCC2)c1ccc(F)cc1 (stereo not shown) [CBK281662],111.122
16,COc1ccc(C=CC(=O)Nc2sc3c(c2C(=O)O)CCCC3)cc1OC [CBK296103],5.887
